This passage reports binding results from article PMC12131583.

Amino acid sequences for entries named in this document (tags omitted).
UniProt P17742: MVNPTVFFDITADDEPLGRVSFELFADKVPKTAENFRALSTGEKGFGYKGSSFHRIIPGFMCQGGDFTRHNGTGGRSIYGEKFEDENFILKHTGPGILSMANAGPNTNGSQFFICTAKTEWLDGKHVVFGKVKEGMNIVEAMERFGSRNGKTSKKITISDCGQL

Results are given in words; binding and its absence hold for the method and conditions named. In cells and extracts the contact can be indirect. Here binding means that the protein was enriched with, or labelled near, the bait; the list need not be complete. Where a sequence is shown, tags or fusion partners need not be part of it.

For the experiment, the target named is T1, HA-tagged PARP3 (PARP3-HA) (human) (UniProt Q9Y6F1).
T1 sequence: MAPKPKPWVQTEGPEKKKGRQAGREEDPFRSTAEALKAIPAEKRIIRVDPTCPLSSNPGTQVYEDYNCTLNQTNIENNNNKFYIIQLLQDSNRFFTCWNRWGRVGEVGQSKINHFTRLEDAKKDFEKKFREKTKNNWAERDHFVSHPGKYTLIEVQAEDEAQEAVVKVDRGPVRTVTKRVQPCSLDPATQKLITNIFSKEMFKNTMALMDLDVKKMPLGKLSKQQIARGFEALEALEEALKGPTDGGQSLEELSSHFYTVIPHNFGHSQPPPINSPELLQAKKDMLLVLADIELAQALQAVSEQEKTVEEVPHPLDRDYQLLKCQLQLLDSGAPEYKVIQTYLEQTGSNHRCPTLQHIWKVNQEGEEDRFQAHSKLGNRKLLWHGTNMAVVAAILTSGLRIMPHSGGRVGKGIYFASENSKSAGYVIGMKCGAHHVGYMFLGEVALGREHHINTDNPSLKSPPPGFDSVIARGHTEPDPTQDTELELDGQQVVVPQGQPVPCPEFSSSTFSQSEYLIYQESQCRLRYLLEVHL
Briefly: affinity purification with mass spectrometry; proteins interacting with HA-tagged PARP3 in RAW264.7 cells pulled down via co-immunoprecipitation and sequenced via mass spectrometry; intersected with mono-ADP-ribosylated proteins.

For the substance “Peptidyl-prolyl cis-trans isomerase A (Ppia) (from UniProt P17742 1-164)”, the binding result was “binds”.
